No constants are given. Whether binding was seen depends on the method and setting. Binding seen in cells or lysates may run through a third protein. Where a sequence is shown, tags or fusion partners need not be part of it.
Molecular target: nls-tetracycline-repressor fused to EGFP (UniProt P04483)
Test: co-IP; S2R+ cells transiently co-expressing the tagged proteins; cleared lysate (20 mM Tris-HCl pH 7.5, 300 mM NaCl, 2 mM MgCl2, 0.1% Nonidet P-40 Substitute, 5% glycerol, 0.5 mM EGTA, 1 mM DTT, Benzonase) on GFP-Trap agarose (anti-EGFP), 1 hour, 4°C; immunoblot

By UniProt entry, the sequences of proteins in these tests, tags left out.
UniProt P04483: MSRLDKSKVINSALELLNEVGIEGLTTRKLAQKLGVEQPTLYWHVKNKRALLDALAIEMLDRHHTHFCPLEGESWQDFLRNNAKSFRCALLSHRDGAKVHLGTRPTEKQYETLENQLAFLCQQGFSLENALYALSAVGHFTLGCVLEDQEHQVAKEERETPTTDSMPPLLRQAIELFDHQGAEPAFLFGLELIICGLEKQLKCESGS

B1: TEF-myc (protein, UniProt Q7K4M4 1-649)
chain: MSKFLDMLSGSQCVSLEKCGDVVVSTNDCMIALYCHFCRDLFTQLPEFLRHLQSNHSDVLHFTKEHNVYSVEELLSGEQGKAHEDAQSAGHNSSSGDSSSLMNSEDSRAIEGSEDNSDNSPMKPEQIGKQSEINLLAEVTNILLQTNDKELKPENGVFNRPRKKANNESSSLKICDLKSHTIARTSRKRMSMVKNRILRVLDSDLSAKLEIKPPEPNSKLSITEPIQEDNIPGTCFDTPTKPIPSSSQLSVRKSSLTEANQICTKYAEKKTAPTMPKLLNCVPKPILTSQQAHTNAEISEINETYHLAASQVTKTTKTFPVKITQIDILQPVKLPKTLITPINEEGVSDQVENSTNNINNAQSLPKENTKKFFKKRSELGIKAQGSPNKFFKIIKSKANPIIVKRVQTTSAKASTNKIQIRSNDKTNCFASEFNSTKIRKLKMENCVDLKSEDPCANTNTRLNKLATISSCEILKAVGLPAITDNPIEDTLLPDELETIRKKADQFIKIYRKYDSIWNYRKICPPAKPDFISQQIFALTREVNKTMLCNLANSDIKGIINQISVWHYNIYTQYIDLDTISENARYTLKLFSFLPVSFAYFCKCCDDIFILKKEYLKHLISHQVRFQCTKCIKVFKYKGYYEKHLRNAHS
binding: no binding
